The list shows a part of the results. Single values of this set are uncertain.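 Tm was set to 64 °C where no melting was found, and many curves are irregular.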

Sequences of proteins named here, by UniProt entry; tags and fusion partners are left off. A change or cut given only in a name is not applied to a line headed by its entry.
UniProt Q96RK0: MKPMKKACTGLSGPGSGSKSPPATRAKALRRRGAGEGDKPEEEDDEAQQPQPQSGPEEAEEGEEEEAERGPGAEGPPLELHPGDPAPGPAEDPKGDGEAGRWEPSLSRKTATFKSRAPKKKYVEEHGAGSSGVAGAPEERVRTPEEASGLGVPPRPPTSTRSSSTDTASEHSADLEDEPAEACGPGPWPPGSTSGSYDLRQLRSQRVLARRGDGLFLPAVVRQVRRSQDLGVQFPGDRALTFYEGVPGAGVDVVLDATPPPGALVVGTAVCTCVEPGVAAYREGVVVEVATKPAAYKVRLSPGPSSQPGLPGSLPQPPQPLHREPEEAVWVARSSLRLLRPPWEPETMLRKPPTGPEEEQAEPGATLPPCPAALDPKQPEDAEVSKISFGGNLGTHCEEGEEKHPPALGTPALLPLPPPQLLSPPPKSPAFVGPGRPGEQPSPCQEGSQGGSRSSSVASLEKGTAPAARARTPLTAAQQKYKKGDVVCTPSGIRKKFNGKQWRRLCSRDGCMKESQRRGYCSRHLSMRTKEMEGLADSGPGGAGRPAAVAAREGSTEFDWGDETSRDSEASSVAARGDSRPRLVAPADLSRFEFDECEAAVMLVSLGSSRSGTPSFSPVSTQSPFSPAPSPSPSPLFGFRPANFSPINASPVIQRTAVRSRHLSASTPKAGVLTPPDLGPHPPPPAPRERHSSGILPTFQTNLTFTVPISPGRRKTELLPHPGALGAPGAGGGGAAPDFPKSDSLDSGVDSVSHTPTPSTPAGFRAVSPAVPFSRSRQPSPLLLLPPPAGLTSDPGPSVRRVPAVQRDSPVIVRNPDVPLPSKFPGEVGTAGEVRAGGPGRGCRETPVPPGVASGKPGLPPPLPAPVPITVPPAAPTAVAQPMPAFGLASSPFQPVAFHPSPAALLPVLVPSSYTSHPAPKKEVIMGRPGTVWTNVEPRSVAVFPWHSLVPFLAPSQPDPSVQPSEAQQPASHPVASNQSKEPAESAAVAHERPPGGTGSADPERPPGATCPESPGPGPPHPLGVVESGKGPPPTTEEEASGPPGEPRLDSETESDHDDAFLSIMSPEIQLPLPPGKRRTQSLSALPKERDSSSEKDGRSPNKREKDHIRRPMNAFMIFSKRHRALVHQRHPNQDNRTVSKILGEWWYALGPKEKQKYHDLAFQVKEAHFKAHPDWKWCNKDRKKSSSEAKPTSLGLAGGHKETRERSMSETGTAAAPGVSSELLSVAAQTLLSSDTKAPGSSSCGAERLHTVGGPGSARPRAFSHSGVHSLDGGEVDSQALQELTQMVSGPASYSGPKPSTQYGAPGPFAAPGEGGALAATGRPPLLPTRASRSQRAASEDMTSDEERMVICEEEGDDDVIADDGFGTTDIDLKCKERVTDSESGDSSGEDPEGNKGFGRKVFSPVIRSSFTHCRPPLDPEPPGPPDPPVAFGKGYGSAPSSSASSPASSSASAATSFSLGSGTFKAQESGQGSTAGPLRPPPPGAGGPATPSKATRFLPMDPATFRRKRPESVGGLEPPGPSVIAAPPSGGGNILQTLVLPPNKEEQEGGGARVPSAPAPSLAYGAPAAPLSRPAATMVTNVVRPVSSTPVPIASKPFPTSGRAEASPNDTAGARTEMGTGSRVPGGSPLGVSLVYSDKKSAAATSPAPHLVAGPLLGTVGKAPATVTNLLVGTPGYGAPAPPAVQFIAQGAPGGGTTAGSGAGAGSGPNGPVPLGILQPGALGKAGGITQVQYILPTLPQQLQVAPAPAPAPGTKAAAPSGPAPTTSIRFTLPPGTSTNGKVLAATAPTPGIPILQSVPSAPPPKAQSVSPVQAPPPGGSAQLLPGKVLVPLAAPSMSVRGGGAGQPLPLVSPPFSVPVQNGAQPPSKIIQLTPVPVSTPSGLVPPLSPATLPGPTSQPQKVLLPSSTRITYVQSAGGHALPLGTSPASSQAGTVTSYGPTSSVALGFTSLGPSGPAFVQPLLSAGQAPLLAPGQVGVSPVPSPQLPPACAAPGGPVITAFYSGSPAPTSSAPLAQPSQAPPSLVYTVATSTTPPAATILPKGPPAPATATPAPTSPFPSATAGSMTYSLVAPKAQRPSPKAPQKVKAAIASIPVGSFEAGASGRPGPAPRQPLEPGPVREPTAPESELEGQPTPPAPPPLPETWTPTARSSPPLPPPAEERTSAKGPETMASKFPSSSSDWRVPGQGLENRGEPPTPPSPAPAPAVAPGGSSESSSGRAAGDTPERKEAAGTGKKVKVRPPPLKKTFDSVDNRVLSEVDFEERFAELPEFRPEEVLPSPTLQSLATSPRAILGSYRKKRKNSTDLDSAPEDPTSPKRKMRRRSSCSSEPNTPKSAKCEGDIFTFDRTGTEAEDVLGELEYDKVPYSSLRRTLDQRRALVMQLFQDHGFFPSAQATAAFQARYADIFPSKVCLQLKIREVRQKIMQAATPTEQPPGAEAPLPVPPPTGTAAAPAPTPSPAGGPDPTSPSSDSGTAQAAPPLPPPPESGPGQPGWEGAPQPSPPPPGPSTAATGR
UniProt Q96NW4, whole entry: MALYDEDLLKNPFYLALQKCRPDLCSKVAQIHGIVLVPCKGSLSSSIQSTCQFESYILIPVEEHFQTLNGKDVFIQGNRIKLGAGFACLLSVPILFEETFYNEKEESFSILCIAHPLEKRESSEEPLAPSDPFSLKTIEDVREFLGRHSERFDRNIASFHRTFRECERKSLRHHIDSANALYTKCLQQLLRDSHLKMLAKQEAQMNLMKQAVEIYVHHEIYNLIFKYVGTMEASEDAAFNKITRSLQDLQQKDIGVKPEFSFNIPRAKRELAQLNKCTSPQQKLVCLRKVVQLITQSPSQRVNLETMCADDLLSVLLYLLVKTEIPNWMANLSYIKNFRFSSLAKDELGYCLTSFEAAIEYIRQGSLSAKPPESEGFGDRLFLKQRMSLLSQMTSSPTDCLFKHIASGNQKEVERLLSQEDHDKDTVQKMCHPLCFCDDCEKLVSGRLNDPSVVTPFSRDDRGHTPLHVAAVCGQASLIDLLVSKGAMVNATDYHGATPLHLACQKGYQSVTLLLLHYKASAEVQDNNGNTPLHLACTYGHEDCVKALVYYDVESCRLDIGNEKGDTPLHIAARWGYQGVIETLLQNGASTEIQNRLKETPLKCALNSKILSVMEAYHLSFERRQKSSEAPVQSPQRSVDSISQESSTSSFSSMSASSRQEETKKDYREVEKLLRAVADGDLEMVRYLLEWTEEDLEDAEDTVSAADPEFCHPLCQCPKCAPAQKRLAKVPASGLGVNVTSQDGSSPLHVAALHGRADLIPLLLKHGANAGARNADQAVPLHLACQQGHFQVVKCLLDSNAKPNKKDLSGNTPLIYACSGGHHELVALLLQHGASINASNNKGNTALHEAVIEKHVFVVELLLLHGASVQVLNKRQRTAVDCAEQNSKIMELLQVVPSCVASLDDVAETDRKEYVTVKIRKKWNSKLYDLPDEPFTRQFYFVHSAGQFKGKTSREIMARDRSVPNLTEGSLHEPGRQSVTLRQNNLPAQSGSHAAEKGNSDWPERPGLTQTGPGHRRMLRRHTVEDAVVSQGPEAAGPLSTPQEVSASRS
UniProt Q96EY8: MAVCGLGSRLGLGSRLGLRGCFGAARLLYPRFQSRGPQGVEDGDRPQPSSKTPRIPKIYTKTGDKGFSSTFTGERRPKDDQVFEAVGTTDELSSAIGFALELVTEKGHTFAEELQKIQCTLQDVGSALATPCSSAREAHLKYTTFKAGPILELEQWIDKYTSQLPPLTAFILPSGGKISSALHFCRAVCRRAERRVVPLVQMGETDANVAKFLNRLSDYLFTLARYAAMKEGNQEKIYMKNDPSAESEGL
UniProt Q96GM5, whole entry: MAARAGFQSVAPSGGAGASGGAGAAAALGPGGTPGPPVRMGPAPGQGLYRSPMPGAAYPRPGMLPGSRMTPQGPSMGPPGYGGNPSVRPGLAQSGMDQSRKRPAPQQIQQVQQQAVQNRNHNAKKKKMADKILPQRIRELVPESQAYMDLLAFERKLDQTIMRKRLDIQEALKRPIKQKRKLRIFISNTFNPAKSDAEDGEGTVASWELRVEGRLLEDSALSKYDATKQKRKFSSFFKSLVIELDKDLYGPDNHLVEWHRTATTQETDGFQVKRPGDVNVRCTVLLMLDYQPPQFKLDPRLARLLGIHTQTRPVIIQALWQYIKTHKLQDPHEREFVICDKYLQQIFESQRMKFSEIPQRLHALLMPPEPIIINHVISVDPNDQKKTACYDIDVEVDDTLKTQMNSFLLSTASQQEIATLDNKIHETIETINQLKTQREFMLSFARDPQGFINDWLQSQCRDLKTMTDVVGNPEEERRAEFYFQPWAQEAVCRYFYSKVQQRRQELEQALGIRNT
UniProt Q96GE9: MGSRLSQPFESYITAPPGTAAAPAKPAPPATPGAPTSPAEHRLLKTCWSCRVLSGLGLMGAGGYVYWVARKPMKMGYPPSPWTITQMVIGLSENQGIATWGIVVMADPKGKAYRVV
UniProt Q96HQ2: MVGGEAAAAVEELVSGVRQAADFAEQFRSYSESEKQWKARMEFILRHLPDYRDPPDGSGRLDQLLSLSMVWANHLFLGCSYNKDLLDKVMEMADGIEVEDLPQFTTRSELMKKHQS
UniProt Q96ES7: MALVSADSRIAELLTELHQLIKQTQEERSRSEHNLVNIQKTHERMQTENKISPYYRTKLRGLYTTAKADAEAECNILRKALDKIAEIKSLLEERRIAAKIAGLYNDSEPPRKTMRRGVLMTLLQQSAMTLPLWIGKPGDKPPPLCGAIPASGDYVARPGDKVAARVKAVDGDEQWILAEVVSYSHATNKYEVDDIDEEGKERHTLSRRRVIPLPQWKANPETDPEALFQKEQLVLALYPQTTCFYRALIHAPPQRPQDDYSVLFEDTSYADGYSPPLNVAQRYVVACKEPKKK
UniProt Q96KN1: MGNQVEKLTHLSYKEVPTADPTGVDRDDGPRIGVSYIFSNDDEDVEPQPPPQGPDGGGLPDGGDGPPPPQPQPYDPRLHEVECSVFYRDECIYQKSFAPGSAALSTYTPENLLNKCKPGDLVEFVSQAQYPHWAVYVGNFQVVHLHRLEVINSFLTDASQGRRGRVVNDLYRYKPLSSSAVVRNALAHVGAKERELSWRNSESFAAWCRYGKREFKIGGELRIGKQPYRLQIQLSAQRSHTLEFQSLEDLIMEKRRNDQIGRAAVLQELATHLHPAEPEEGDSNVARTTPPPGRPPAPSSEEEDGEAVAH
UniProt Q96GA3: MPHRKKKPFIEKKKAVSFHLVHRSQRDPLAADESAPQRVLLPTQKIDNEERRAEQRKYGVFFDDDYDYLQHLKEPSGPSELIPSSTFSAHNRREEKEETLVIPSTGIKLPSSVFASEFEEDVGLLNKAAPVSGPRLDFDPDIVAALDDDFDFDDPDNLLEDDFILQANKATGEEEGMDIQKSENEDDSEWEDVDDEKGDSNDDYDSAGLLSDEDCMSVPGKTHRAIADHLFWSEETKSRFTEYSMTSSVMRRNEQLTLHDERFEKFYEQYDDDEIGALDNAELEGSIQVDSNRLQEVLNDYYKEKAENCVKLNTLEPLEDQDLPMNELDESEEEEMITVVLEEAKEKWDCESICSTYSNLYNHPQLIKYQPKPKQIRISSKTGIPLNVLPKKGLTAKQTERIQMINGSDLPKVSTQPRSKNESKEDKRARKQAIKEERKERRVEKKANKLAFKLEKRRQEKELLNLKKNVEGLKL
UniProt Q96EZ8, whole entry: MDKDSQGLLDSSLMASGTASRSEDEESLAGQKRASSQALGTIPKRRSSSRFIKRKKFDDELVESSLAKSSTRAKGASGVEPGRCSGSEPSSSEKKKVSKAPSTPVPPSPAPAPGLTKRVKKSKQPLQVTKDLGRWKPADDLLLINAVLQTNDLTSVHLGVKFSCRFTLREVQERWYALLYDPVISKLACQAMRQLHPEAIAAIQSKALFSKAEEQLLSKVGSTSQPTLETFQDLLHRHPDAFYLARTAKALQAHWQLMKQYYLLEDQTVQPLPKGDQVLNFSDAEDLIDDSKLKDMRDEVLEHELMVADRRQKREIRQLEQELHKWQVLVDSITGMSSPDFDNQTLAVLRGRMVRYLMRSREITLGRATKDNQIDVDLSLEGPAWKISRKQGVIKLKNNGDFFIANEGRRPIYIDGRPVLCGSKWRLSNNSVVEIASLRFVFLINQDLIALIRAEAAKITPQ
UniProt Q96IJ6: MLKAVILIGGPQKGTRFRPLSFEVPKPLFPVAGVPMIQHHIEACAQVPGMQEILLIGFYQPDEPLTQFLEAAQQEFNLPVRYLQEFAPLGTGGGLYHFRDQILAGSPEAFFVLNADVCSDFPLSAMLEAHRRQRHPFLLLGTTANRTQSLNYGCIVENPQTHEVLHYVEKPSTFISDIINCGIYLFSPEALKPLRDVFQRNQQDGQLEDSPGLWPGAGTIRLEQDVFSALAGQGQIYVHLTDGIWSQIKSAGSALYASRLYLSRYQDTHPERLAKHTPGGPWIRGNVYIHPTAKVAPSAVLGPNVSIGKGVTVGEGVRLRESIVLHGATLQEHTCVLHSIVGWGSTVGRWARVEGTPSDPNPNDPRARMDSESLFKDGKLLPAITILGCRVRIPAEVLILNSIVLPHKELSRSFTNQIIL

The record followed here is the supplement of paper PMC12595434, “Development of retinoid nuclear receptor pathway antagonists through targeting aldehyde dehydrogenase 1A3” (iScience, 2025).

Compound in one assay: CCc1cnccc1C(=O)Nc1cc2c(cc1F)NC(=O)CC2
Put plainly: melting temperature shift (DMSO Tm minus MBE1-treated Tm) in cellular thermal proteome profiling; higher = less thermal stabilization by MBE1 (negative = stabilized by MBE1). Conditions: A375; MBE1 concentration: 100 nM.
On to SNX27 (UniProt Q96L92), for which the melting temperature shift is -0.819 °C. As to TMEM68 (UniProt Q96MH6), the melting temperature shift was -1.37 °C. As for CIC (UniProt Q96RK0), the melting temperature shift was -0.579 °C.

With DNAJA3 (UniProt Q96EY1), the melting temperature shift is -2.34 °C.

Consider O15320 (UniProt Q96PC5), for which the melting temperature shift is -0.195 °C.

The assay is the same for the next values; noted with them: A375; MBE1 concentration: 1 uM.
For ANKRD27 (UniProt Q96NW4), the melting temperature shift is -1.55 °C.

Consider MMAB (UniProt Q96EY8), for which the melting temperature shift was 0.531 °C. Still for that read-out and setting: the same measure for SMARCD1 (UniProt Q96GM5): -0.109 °C. VCPIP1 (UniProt Q96JH7): the melting temperature shift is -0.34 °C. The same measure, in the same setting: the same measure for UniProt Q96GE9: 6.79 °C.

As for BTF3L4 (UniProt Q96K17), the melting temperature shift was -1.59 °C. The same measure, in the same setting: as for UniProt Q96JQ2, the figure is 0.305 °C.

Consider MOCOS (UniProt Q96EN8), for which the melting temperature shift was -0.121 °C. Same read-out and setting: as for UniProt Q96HQ2, the figure is -2.96 °C.

Take SGF29 (UniProt Q96ES7): the melting temperature shift is 0.72 °C. Still for that read-out and setting: the same measure for UniProt Q96KN1: 0.574 °C; for PANX1 (UniProt Q96RD7): -4.59 °C. On the same count and under the same terms, the same measure for CDC5L (UniProt Q99459): -0.186 °C; for UniProt Q96PM9: 0.409 °C. On the same count and under the same terms, as for TMEM87B (UniProt Q96K49), the figure is 1.42 °C; as for UniProt Q96GD4, 0.325 °C. In the case of MVB12A (UniProt Q96EY5), the melting temperature shift was -0.47 °C.

With DDRGK1 (UniProt Q96HY6), the melting temperature shift worked out at 0.843 °C.

Take SPAG5 (UniProt Q96R06): the melting temperature shift is -0.641 °C. Still for that read-out and setting: the same measure for TMEM209 (UniProt Q96SK2): 1.2 °C; for IFT74 (UniProt Q96LB3): -0.86 °C. Regarding CNN2 (UniProt Q99439), the melting temperature shift amounted to 0.501 °C. The same measure, in the same setting: the same measure for LTV1 (UniProt Q96GA3): 0.556 °C; for SCLY (UniProt Q96I15): 0.716 °C; for UniProt Q96EZ8: -0.282 °C. The same measure, in the same setting: as for TRAPPC9 (UniProt Q96Q05), the figure is 0.0977 °C; as for PNKP (UniProt Q96T60), -0.833 °C. Still for that read-out and setting: the same measure for GMPPA (UniProt Q96IJ6): 0.402 °C.

With TGS1 (UniProt Q96RS0), the melting temperature shift is -0.167 °C.

As for CCDC51 (UniProt Q96ER9), the melting temperature shift is -0.161 °C.

Take FAM210A (UniProt Q96ND0): the melting temperature shift is -0.435 °C. With UniProt Q96FL9, the melting temperature shift was -0.524 °C. As to SNX27 (UniProt Q96L92), the melting temperature shift was -0.0988 °C. The same measure, in the same setting: the same measure for TMEM68 (UniProt Q96MH6): 0.36 °C; for CIC (UniProt Q96RK0): -1.63 °C; for DNAJA3 (UniProt Q96EY1): -2.2 °C. On the same count and under the same terms, the same measure for O15320 (UniProt Q96PC5): -0.44 °C.
